Data source: PubChem BioAssay AID504784 (Drosophila RNAi Screening Center, 2011)
The deposit covers about 17,000 reagents; shown is an unselected part of those that have a named target and a result. 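Each column is one replicate's B-score; the combined score over replicates was not deposited, so single values may mislead.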 Not all columns of the deposit are shown.

Assay: 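Fly genes whose silencing alters how much lipid cells keep in droplets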 (primary screen)
Cell system: Drosophila Kc167 embryonic cells
Reagents: long dsRNA against Drosophila genes, about 250 ng dsRNA per well
Duration: 4 days
Conditions: cells fed 400 µM oleic acid bound to BSA
Measurement: 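Microscope images give a droplet-to-nucleus area ratio, taken as log and converted to a screen-wide B-score; higher values mean greater lipid storage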
Direction: droplet/nuclear area B-score: higher = more stored lipid (overstorage)

droplet/nuclear area B-score, replicate 1, by gene and reagent
CtsL1 (Cathepsin L1): DRSC05462 1.24; DRSC07363 -0.00606
CG10874: DRSC00297 1.81
Rrp47 (Ribosomal RNA processing 47): DRSC20124 4.13
CG14650: DRSC12236 0.635
CG8654: DRSC07231 -1.04
CG14132: DRSC10136 -0.0106
Gdi (GDP dissociation inhibitor): DRSC03330 -0.0358
CG15279: DRSC01935 1.46
CG16739: DRSC06621 4.12
Arp2 (Actin-related protein 2): DRSC19332 -1.83
CG17169: DRSC20905 1.67
asrij: DRSC04175 -0.447
CG10804: DRSC17764 -1.79
hmw (hemingway): DRSC16277 2.01
CG13791 (retired record): DRSC02295 -1.57
CG10550: DRSC14251 -0.248
CG30156: DRSC04959 -1.32
ClC-a (Chloride channel-a): DRSC14947 -1.04; DRSC14948 -1.93; DRSC16142 1.33
insc (inscuteable): DRSC04695 2.39
Xrcc2 (X-ray repair cross complementing 2): DRSC19984 0.455
CG34426: DRSC09977 -0.959
btl (breathless): DRSC11331 -1.32
mfas (midline fasciclin): DRSC16997 -0.528
TwdlM (TweedleM): DRSC15810 -0.718
CG32102: DRSC22015 0.0522
CG31688: DRSC02682 -0.559
Atpalpha (Na pump alpha subunit): DRSC14119 2.61
dlt (discs lost): DRSC08705 0.395
tsh (teashirt): DRSC03740 1.69
alphaTub85E (alpha-Tubulin at 85E): DRSC16899 1.33
nAChRalpha2 (nicotinic Acetylcholine Receptor alpha2): DRSC17009 -0.239
CG4477: DRSC10425 -0.556
sc (scute): DRSC18830 -0.0273
Upf2: DRSC18218 0.291
CG32813: DRSC17948 -0.468
Cdk1 (Cyclin-dependent kinase 1): DRSC03504 -1.62
spn-D (spindle D): DRSC22641 0.497
CG13724: DRSC10053 -0.0516
bru2 (bruno 2): DRSC01246 0.00119; DRSC01247 -0.844; DRSC01249 -1.35; DRSC02557 3.64
CG32638: DRSC18968 -1.34
RhoGAP54D (Rho GTPase activating protein at 54D): DRSC06990 -0.104
CG9953: DRSC11106 1.86
nrv1 (nervana 1): DRSC03382 0.691
CG6893: DRSC10742 2.49
Trc8 (TRC8 ring finger protein): DRSC15437 -0.0212
Trm1 (tRNA methyltransferase 1): DRSC02951 -0.594
CG32066: DRSC10652 -2.32; DRSC10653 0.514
Myt1: DRSC11228 -1
Acsx2 (Acyl-CoA synthetase X2): DRSC14308 3.94
Imp (IGF-II mRNA-binding protein): DRSC18861 -0.688; DRSC20255 -1.3
CG15252: DRSC17981 -0.0907
CG5235: DRSC10494 0.237
CG14567: DRSC11728 0.414
SmydA-8 (SET and MYND domain containing, arthropod-specific, member 8): DRSC18797 0.444; DRSC22064 -0.348; DRSC22263 0.0921
CG9498: DRSC03235 0.561
unc79 (uncoordinated 79): DRSC15746 -0.29
CG18095: DRSC01948 0.038
AIMP3 (aaRS-interacting multifunctional protein 3): DRSC04500 -0.613
Smyd4-4 (SET and MYND domain containing, class 4, member 4): DRSC05956 -2.38
CG18507: DRSC01334 0.245; DRSC01914 0.606
CG33017: DRSC06573 0.364; DRSC06574 0.954
CG9705: DRSC11094 -0.664
serp (serpentine): DRSC11035 -1.09; DRSC11036 -0.638
ATPsynD (ATP synthase, subunit D): DRSC14093 3.01
CG10472: DRSC09730 -0.984
CG33322: DRSC03204 3.21
RpS7 (Ribosomal protein S7): DRSC15394 1.81
CG31076: DRSC16017 -0.184
CG17028: DRSC10239 0.175
CG3356: DRSC04358 -0.314

Entries above whose gene name starts with S or s (8):
droplet/nuclear area B-score, replicate 1, by gene and reagent
sc (scute): DRSC18830 -0.0273
spn-D (spindle D): DRSC22641 0.497
SmydA-8 (SET and MYND domain containing, arthropod-specific, member 8): DRSC18797 0.444; DRSC22064 -0.348; DRSC22263 0.0921
Smyd4-4 (SET and MYND domain containing, class 4, member 4): DRSC05956 -2.38
serp (serpentine): DRSC11035 -1.09; DRSC11036 -0.638
